Binding data for two substances are collected here from PMC3972672.

By UniProt entry, the sequences of proteins in these tests, tags left out. Residues count along the entry.
UniProt P25445, residues 26-335: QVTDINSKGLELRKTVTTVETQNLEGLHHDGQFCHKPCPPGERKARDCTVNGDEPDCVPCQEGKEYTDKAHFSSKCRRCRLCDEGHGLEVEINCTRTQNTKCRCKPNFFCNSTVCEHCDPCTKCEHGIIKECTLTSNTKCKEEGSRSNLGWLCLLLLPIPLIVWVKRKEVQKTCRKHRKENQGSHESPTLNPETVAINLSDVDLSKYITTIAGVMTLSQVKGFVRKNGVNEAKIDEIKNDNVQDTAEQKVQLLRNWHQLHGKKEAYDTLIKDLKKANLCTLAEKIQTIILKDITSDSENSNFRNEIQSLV
UniProt Q14790: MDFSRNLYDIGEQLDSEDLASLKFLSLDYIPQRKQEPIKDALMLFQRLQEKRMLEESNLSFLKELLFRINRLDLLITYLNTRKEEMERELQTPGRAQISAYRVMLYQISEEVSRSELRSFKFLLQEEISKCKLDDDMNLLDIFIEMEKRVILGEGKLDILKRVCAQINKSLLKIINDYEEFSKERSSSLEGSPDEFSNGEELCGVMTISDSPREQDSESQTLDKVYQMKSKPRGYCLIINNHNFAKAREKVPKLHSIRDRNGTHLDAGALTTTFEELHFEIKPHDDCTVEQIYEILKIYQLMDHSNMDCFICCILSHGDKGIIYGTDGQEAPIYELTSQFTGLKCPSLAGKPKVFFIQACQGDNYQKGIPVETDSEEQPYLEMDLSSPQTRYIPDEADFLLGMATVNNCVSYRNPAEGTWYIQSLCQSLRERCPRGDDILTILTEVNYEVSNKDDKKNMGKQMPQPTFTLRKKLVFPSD
UniProt Q13158: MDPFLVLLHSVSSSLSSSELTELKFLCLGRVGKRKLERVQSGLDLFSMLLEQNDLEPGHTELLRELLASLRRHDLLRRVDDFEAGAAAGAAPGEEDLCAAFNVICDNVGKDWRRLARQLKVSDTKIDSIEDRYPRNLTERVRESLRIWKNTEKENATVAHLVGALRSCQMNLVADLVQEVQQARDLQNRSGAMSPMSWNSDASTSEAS

Results are given in words; binding and its absence hold for the method and conditions named. Binding seen in cells or lysates may run through a third protein.

The experiment deals with CD95 (Fas/APO-1) (human (endogenous in SKW6.4)) (UniProt P25445). As to the kind of experiment: condition: only cells left untreated (without LZ-CD95L); co-IP; as a1 but SKW6.4 cells left untreated (no LZ-CD95L); Western blot. (A western blot detects proteins with antibodies after separation by electrophoresis.)

For “procaspase-8 (from UniProt Q14790 1-479) (enzyme)”, the binding result was “no binding”. Consider FADD (from UniProt Q13158 1-208), for which the binding result is reported as “no binding”.
